Measured values from publication PMC10984984, “Loss-of-function mutation in PRMT9 causes abnormal synapse development by dysregulation of RNA alternative splicing”.

Protein sequences, listed by entry. Tags and fused reporters are not part of them. Lines headed by an entry give the natural chain unless they say otherwise; changes in a name come on top.
UniProt Q6P2P2: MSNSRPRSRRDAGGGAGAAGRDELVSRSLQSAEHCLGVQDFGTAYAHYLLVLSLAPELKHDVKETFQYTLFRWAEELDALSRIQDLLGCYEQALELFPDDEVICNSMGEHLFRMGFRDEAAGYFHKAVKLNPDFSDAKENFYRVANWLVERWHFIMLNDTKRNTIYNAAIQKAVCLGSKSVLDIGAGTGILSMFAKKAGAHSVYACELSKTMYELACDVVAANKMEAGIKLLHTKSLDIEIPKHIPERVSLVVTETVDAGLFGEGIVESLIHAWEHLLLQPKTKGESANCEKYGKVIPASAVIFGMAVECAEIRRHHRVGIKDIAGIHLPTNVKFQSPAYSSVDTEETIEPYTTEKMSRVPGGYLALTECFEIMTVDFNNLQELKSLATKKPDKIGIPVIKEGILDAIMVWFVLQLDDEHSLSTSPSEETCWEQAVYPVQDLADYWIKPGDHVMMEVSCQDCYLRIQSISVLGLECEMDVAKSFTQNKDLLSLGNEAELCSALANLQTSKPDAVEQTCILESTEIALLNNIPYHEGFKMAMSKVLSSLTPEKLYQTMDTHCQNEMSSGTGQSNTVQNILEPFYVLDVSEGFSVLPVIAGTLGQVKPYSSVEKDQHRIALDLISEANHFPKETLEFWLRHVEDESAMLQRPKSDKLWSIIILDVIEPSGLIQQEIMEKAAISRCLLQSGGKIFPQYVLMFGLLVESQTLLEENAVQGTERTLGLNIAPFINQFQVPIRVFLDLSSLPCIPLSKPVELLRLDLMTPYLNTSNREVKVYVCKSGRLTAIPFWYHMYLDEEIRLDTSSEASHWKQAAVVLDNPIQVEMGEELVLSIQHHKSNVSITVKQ
UniProt Q13435: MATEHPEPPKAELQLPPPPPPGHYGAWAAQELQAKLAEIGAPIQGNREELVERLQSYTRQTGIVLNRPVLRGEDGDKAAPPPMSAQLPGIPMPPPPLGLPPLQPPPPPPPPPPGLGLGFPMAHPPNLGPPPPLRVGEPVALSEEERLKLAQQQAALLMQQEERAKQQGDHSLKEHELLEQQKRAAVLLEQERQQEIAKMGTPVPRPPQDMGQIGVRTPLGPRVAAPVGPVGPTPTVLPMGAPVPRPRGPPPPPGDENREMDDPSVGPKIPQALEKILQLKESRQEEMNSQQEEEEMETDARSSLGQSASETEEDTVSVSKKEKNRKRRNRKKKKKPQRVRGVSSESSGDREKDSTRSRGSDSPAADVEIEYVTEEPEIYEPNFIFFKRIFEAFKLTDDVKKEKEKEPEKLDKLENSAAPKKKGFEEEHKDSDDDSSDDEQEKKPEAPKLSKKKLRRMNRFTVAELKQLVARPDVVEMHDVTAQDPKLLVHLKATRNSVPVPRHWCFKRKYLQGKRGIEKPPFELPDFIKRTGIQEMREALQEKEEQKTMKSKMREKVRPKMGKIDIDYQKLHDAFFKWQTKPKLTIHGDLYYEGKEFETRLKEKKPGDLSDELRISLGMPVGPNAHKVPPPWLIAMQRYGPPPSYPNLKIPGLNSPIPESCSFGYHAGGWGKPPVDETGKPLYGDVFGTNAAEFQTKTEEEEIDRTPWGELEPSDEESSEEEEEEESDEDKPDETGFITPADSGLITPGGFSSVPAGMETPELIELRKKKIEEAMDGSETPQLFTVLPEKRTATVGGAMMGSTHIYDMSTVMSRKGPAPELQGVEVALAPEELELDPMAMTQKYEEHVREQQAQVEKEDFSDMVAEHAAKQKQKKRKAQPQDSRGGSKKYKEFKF
UniProt Q15386: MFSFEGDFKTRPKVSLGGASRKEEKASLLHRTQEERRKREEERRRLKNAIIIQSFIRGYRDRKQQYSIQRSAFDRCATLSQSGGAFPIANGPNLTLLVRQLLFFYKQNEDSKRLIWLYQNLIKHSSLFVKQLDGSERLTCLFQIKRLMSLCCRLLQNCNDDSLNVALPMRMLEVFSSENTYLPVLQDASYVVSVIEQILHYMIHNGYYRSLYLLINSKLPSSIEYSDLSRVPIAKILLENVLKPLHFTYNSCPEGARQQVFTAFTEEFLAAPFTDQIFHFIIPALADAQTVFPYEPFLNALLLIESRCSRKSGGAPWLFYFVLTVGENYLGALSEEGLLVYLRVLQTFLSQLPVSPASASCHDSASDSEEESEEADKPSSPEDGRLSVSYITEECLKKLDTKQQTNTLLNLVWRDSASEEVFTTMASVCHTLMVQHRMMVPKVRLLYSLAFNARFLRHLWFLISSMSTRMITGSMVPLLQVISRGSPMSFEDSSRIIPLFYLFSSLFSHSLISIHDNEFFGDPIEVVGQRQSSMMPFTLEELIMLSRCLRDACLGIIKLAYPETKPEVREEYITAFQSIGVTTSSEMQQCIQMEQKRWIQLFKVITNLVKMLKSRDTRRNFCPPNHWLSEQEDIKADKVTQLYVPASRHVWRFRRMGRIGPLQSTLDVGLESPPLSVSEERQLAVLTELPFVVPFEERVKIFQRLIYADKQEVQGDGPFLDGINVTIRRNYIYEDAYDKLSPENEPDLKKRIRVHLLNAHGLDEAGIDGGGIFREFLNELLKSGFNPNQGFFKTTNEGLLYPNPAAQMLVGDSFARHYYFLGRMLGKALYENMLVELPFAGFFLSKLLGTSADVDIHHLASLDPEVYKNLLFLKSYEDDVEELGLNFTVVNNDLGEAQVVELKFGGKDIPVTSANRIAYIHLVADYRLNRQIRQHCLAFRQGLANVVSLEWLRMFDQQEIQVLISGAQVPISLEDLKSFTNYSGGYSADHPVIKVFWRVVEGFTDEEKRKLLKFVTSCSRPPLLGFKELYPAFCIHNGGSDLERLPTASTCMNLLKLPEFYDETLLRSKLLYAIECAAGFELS

Experiments:
Test in all cases: affinity purification with mass spectrometry; protein complexes purified by Flag-tagged WT and G189R-mutant PRMT9 from HEK293 cells, resolved on a gel, in-gel digestion, LC/MS; two biological repeats
[1] = target: Flag-tagged G189R-mutant PRMT9 (human) (UniProt Q6P2P2)
[2] = target: Flag-tagged wild type PRMT9 (protein arginine methyltransferase 9) (human) (UniProt Q6P2P2)
[3] = target: Flag-tagged wild type PRMT9 (protein arginine methyltransferase 9) (human), Q6P2P2; settings: remark: other sources report otherwise

Molecule	binding [1]	binding [2]	binding [3]
splicing factor 3B subunit 2 (SF3B2), endogenous (from UniProt Q13435 1-895)	no binding	binds	
ubiquitin-protein ligase E3C (UBE3C) (from UniProt Q15386 1-1083) (enzyme)	binds	binds	
valosin-containing protein (VCP)/p97 (from UniProt P55072 1-806)	binds	binds	
SF3B4, Q15427 1-424 (protein) MAAGPISERNQDATVYVGGLDEKVSEPLLWELFLQAGPVVNTHMPKDRVTGQHQGYGFVEFLSEEDADYAIKIMNMIKLYGKPIRVNKASAHNKNLDVGANIFIGNLDPEIDEKLLYDTFSAFGVILQTPKIMRDPDTGNSKGYAFINFASFDASDAAIEAMNGQYLCNRPITVSYAFKKDSKGERHGSAAERLLAAQNPLSQADRPHQLFADAPPPPSAPNPVVSSLGSGLPPPGMPPPGSFPPPVPPPGALPPGIPPAMPPPPMPPGAAGHGPPSAGTPGAGHPGHGHSHPHPFPPGGMPHPGMSQMQLAHHGPHGLGHPHAGPPGSGGQPPPRPPPGMPHPGPPPMGMPPRGPPFGSPMGHPGPMPPHGMRGPPPLMPPHGYTGPPRPPPYGYQRGPLPPPRPTPRPPVPPRGPLRGPLPQ			binds

These are yes or no findings as the source states them, for the method shown. Binding seen in cells or lysates may run through a third protein. A yes stands for co-enrichment or nearness to the bait. Other partners may have been found. For some of these results: A no says only that the protein was not detected with the bait.
